In this data set the test system is RPE melanosomes. The experiment in a line: X-ray microanalysis of melanosomes within RPE cells. The conditions noted are these: 24 mg/kg/day; versus untreated. Format: in vivo, Cynomolgus monkey. Here is the method: In order to investigate whether trace element concentration is altered by drug administration, X-ray microanalysis of melanosomes within RPE cells from untreated and drug treated monkeys was performed. In addition melanosomes within macrophages were also analysed.
The concentration of C, Na, P, S, Ca and Fe in RPE melanosomes or in melanosomes from macrophages after drug treatment are presented in atom % as detected by EDX. These findings were compared to the concentrations without treatment. A significant increase of Ca, Na and P was found in RPE melanosomes after treatment. (p=p−values from Student's T-test; n=number of measurements). The animal was treated with 24 mg Soraprazan/kg/day.

For `COCCO[C@@H]1c2ccn3c(C)c(C)nc3c2N[C@H](c2ccccc2)[C@H]1O` [Soraprazan, (7R,8R,9R)-2,3-Dimethyl-8-hydroxy-7-(2-methoxyethoxy)-9-phenyl-7,8,9,10-tetrahydro-imidazo[1,2-h][1,7]naphthyridine], the “Fe concentration in RPE melanosomes” value is recorded as “statistically insignificant decrease”; the “Na, P and Ca concentration in RPE melanosomes” value is given as “increase”.

The values above are taken from patent publication US9314453B2, “Tetrahydropyridoethers for treatment of AMD” (KATAIRO GmbH, priority 2008, dated 2016).
